Measurements taken from the supplement of paper PMC4604168 (melanoma cell lines).
The other results are listed elsewhere or left out. Single values are uncertain, as repeats are few or missing.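 Cells were imaged in 1,536-well plates, and nuclei stained with an antibody against cleaved PARP were counted against all DNA-stained nuclei to give the apoptosis fraction. Screening doses were chosen to leave most cells alive, and resting and induced cleaved-PARP levels differ strongly between cell lines.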

system: IPC-298; test: cleaved PARP positive nuclei fraction relative to DMSO control; melanoma cells; higher = more apoptosis; conditions: library dose: low library concentration; 72 h

Compound	cleaved PARP positive nuclei fraction
C[C@@H](N)c1ccc(C(=O)Nc2ccnc3[nH]ccc23)cc1 + Cn1c(=O)n(-c2ccc(C(C)(C)C#N)cc2)c2c3cc(-c4cnc5ccccc5c4)ccc3ncc21 [NVP-BEZ235] (first compound 0.4 µM, partner dose 0.004 µM)	87.9%
Cn1cnc2c(F)c(Nc3ccc(Br)cc3Cl)c(C(=O)NOCCO)cc21 [selumetinib] + Cn1c(Nc2ccc(C(F)(F)F)cc2)nc2cc(Oc3ccnc(-c4ncc(C(F)(F)F)[nH]4)c3)ccc21 [CHIR265] (first compound 0.015 µM, partner dose 0.08 µM)	240%
NC1(c2ccc(-c3nc4ccn5c(=O)[nH]nc5c4cc3-c3ccccc3)cc2)CCC1 + Clc1ccc(Nc2nnc(Cc3ccncc3)c3ccccc23)cc1 [vatalanib] (first compound 0.4 µM, partner dose 2 µM)	47.5%
CCCCCCCCc1ccc(CCC(N)(CO)CO)cc1 [fingolimod] + OCc1c[nH]c2ccccc12 [Indole-3-carbinol] (first compound 2 µM, partner dose 0.8 µM)	90.4%
Cn1sc(=O)n(Cc2ccccc2)c1=O + Clc1ccc(Nc2nnc(Cc3ccncc3)c3ccccc23)cc1 [vatalanib] (first compound 0.4 µM, partner dose 2 µM)	84%
NC(=O)c1ccc(N(C(N)=O)c2c(F)cccc2F)nc1-c1ccc(F)cc1F + CC(=O)c1c(C)c2cnc(Nc3ccc(N4CCNCC4)cn3)nc2n(C2CCCC2)c1=O [palbociclib] (first compound 0.4 µM, partner dose 0.04 µM)	89.7%
CC1(C)CCC(c2ccc(Cl)cc2)=C(CN2CCN(c3ccc(C(=O)NS(=O)(=O)c4ccc(N[C@H](CCN5CCOCC5)CSc5ccccc5)c(S(=O)(=O)C(F)(F)F)c4)cc3)CC2)C1 + CNC(=O)c1cc(Oc2ccc(NC(=O)Nc3ccc(Cl)c(C(F)(F)F)c3)cc2)ccn1 [sorafenib] (first compound 0.4 µM, partner dose 0.4 µM)	352%
NC(=O)c1ccc(N(C(N)=O)c2c(F)cccc2F)nc1-c1ccc(F)cc1F + COc1ccc(C2=N[C@@H](c3ccc(Cl)cc3)[C@@H](c3ccc(Cl)cc3)N2C(=O)N2CCNC(=O)C2)c(OC(C)C)c1 [Nutlin-3] (first compound 0.4 µM, partner dose 0.1 µM)	44.3%
C[C@]1(O)C[C@@H](c2nc(-c3ccc4ccc(-c5ccccc5)nc4c3)c3c(N)nccn32)C1 + Cn1c(=O)n(-c2ccc(C(C)(C)C#N)cc2)c2c3cc(-c4cnc5ccccc5c4)ccc3ncc21 [NVP-BEZ235] (first compound 0.4 µM, partner dose 0.004 µM)	290%
CC1(C)CCC(c2ccc(Cl)cc2)=C(CN2CCN(c3ccc(C(=O)NS(=O)(=O)c4ccc(N[C@H](CCN5CCOCC5)CSc5ccccc5)c(S(=O)(=O)C(F)(F)F)c4)cc3)CC2)C1 + Nc1ncn([C@H]2C[C@H](O)[C@@H](CO)O2)c(=O)n1 [decitabine] (first compound 0.4 µM, partner dose 0.1 µM)	438%

A few values from the entries so far.
For cleaved PARP positive nuclei fraction, Cn1sc(=O)n(Cc2ccccc2)c1=O + Clc1ccc(Nc2nnc(Cc3ccncc3)c3ccccc23)cc1 [vatalanib] (first compound 0.4 µM, partner dose 2 µM) shows 84%
For cleaved PARP positive nuclei fraction, C[C@]1(O)C[C@@H](c2nc(-c3ccc4ccc(-c5ccccc5)nc4c3)c3c(N)nccn32)C1 + Cn1c(=O)n(-c2ccc(C(C)(C)C#N)cc2)c2c3cc(-c4cnc5ccccc5c4)ccc3ncc21 [NVP-BEZ235] (first compound 0.4 µM, partner dose 0.004 µM) shows 290%

system: IST-MEL1; test: as above; conditions: library dose: low library concentration; 72 h

Compound	cleaved PARP positive nuclei fraction
CC1(C)CCC(c2ccc(Cl)cc2)=C(CN2CCN(c3ccc(C(=O)NS(=O)(=O)c4ccc(N[C@H](CCN5CCOCC5)CSc5ccccc5)c(S(=O)(=O)C(F)(F)F)c4)cc3)CC2)C1 + Cc1cn(-c2cc(NC(=O)c3ccc(C)c(Nc4nccc(-c5cccnc5)n4)c3)cc(C(F)(F)F)c2)cn1 [nilotinib] (first compound 0.4 µM, partner dose 0.2 µM)	139%
C[C@@H](N)c1ccc(C(=O)Nc2ccnc3[nH]ccc23)cc1 + CCCCCCCCc1ccc(CCC(N)(CO)CO)cc1 [fingolimod] (first compound 0.4 µM, partner dose 2 µM)	192%
Cn1cnc2c(F)c(Nc3ccc(Br)cc3Cl)c(C(=O)NOCCO)cc21 [selumetinib] + CCCCCCCCc1ccc(CCC(N)(CO)CO)cc1 [fingolimod] (first compound 0.015 µM, partner dose 2 µM)	406%
C[C@]1(O)C[C@@H](c2nc(-c3ccc4ccc(-c5ccccc5)nc4c3)c3c(N)nccn32)C1 + Nc1ccn([C@@H]2O[C@H](CO)[C@@H](O)C2(F)F)c(=O)n1 [gemcitabine] (first compound 0.4 µM, partner dose 0.0004 µM)	39.2%
CCCCCCCCc1ccc(CCC(N)(CO)CO)cc1 [fingolimod] + Nc1nc(F)nc2c1ncn2[C@@H]1O[C@H](CO)[C@@H](O)[C@@H]1O [fludarabine] (first compound 2 µM, partner dose 0.2 µM)	280%
CCCCCCCCc1ccc(CCC(N)(CO)CO)cc1 [fingolimod] + C#Cc1cccc(Nc2ncnc3cc(OCCOC)c(OCCOC)cc23)c1 [erlotinib] (first compound 2 µM, partner dose 0.8 µM)	132%
C[C@]1(O)C[C@@H](c2nc(-c3ccc4ccc(-c5ccccc5)nc4c3)c3c(N)nccn32)C1 + O=C(O)[C@@H]1[O][Sb](=[O])([O][Sb]2(=[O])[O][C@H]([C@H](O)CO)[C@H](O)[C@H](C(=O)O)[O]2)[O][C@H]([C@H](O)CO)[C@@H]1O [stibogluconate] (first compound 0.4 µM, partner dose 2 µM)	62.6%
CC1(C)CCC(c2ccc(Cl)cc2)=C(CN2CCN(c3ccc(C(=O)NS(=O)(=O)c4ccc(N[C@H](CCN5CCOCC5)CSc5ccccc5)c(S(=O)(=O)C(F)(F)F)c4)cc3)CC2)C1 + COc1ccc(Cl)c(Nc2nc3ccccc3nc2NS(=O)(=O)c2cccc(NC(=O)C(C)(C)N)c2)c1 [XL147] (first compound 0.4 µM, partner dose 0.8 µM)	131%
CC(=O)O[C@@]12CO[C@@H]1C[C@H](O)[C@@]1(C)C(=O)[C@H](O)C3=C(C)[C@@H](OC(=O)[C@H](O)[C@@H](NC(=O)OC(C)(C)C)c4ccccc4)C[C@@](O)([C@@H](OC(=O)c4ccccc4)[C@H]21)C3(C)C [Docetaxel] + Cc1nc(Nc2ncc(C(=O)Nc3c(C)cccc3Cl)s2)cc(N2CCN(CCO)CC2)n1 [dasatanib] (first compound 0.0001 µM, partner dose 0.004 µM)	143%
CN(c1ncccc1CNc1nc(Nc2ccc3c(c2)CC(=O)N3)ncc1C(F)(F)F)S(C)(=O)=O + C=CCNC1=C2C[C@@H](C)C[C@H](OC)[C@H](O)[C@@H](C)/C=C(\C)[C@H](OC(N)=O)[C@@H](OC)/C=C\C=C(/C)C(=O)NC(=CC1=O)C2=O [Tanespimycin] (first compound 0.08 µM, partner dose 0.002 µM)	336%
C[C@]1(O)C[C@@H](c2nc(-c3ccc4ccc(-c5ccccc5)nc4c3)c3c(N)nccn32)C1 + CCN(CC)CCNC(=O)c1c(C)[nH]c(/C=C2\C(=O)Nc3ccc(F)cc32)c1C [sunitinib] (first compound 0.4 µM, partner dose 0.4 µM)	167%
C[C@]1(O)C[C@@H](c2nc(-c3ccc4ccc(-c5ccccc5)nc4c3)c3c(N)nccn32)C1 + C[C@]1(c2nc3c(C(N)=O)cccc3[nH]2)CCCN1 [Veliparib] (first compound 0.4 µM, partner dose 1.4 µM)	171%
CCN(CC)CCNC(=O)c1c(C)[nH]c(/C=C2\C(=O)Nc3ccc(F)cc32)c1C [sunitinib] + C[C@]1(c2nc3c(C(N)=O)cccc3[nH]2)CCCN1 [Veliparib] (first compound 0.4 µM, partner dose 1.4 µM)	78.7%
CC1(C)CCC(c2ccc(Cl)cc2)=C(CN2CCN(c3ccc(C(=O)NS(=O)(=O)c4ccc(N[C@H](CCN5CCOCC5)CSc5ccccc5)c(S(=O)(=O)C(F)(F)F)c4)cc3)CC2)C1 + CN1CCN(c2ccc3nc(-c4c(N)c5c(F)cccc5[nH]c4=O)[nH]c3c2)CC1 [Dovitinib] (first compound 0.4 µM, partner dose 0.1 µM)	194%
Cn1sc(=O)n(Cc2ccccc2)c1=O + Cn1c(Nc2ccc(C(F)(F)F)cc2)nc2cc(Oc3ccnc(-c4ncc(C(F)(F)F)[nH]4)c3)ccc21 [CHIR265] (first compound 0.4 µM, partner dose 0.08 µM)	35.7%
Cn1cnc2c(F)c(Nc3ccc(Br)cc3Cl)c(C(=O)NOCCO)cc21 [selumetinib] + C#Cc1cccc(Nc2ncnc3cc(OCCOC)c(OCCOC)cc23)c1 [erlotinib] (first compound 0.015 µM, partner dose 0.8 µM)	68.1%
NC(=O)c1ccc(N(C(N)=O)c2c(F)cccc2F)nc1-c1ccc(F)cc1F + C[C@@H](Oc1cc(-c2cnn(C3CCNCC3)c2)cnc1N)c1c(Cl)ccc(F)c1Cl [Crizotinib] (first compound 0.4 µM, partner dose 0.2 µM)	62.8%
CCN(CC)CCNC(=O)c1c(C)[nH]c(/C=C2\C(=O)Nc3ccc(F)cc32)c1C [sunitinib] + Nc1ccn([C@@H]2O[C@H](CO)[C@@H](O)C2(F)F)c(=O)n1 [gemcitabine] (first compound 0.4 µM, partner dose 0.0004 µM)	38.1%
CC1(C)CCC(c2ccc(Cl)cc2)=C(CN2CCN(c3ccc(C(=O)NS(=O)(=O)c4ccc(N[C@H](CCN5CCOCC5)CSc5ccccc5)c(S(=O)(=O)C(F)(F)F)c4)cc3)CC2)C1 + CS(=O)(=O)CCNCc1ccc(-c2ccc3ncnc(Nc4ccc(OCc5cccc(F)c5)c(Cl)c4)c3c2)o1 [lapatinib] (first compound 0.4 µM, partner dose 0.8 µM)	148%
